Measurements reported in PMC10011438.
No constants are given. Whether binding was seen depends on the method and setting. Binding seen in cells or lysates may run through a third protein. Some entries that bind do so weakly or less than the wild type.

Protein sequences, listed by entry. Tags and fused reporters are not part of them.
UniProt P10415: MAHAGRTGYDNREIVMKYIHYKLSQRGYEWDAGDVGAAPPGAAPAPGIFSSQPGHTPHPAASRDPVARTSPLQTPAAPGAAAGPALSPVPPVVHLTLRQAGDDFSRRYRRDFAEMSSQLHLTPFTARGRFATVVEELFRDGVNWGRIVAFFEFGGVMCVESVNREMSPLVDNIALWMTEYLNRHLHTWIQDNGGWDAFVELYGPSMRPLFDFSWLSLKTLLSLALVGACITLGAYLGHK
UniProt P11881: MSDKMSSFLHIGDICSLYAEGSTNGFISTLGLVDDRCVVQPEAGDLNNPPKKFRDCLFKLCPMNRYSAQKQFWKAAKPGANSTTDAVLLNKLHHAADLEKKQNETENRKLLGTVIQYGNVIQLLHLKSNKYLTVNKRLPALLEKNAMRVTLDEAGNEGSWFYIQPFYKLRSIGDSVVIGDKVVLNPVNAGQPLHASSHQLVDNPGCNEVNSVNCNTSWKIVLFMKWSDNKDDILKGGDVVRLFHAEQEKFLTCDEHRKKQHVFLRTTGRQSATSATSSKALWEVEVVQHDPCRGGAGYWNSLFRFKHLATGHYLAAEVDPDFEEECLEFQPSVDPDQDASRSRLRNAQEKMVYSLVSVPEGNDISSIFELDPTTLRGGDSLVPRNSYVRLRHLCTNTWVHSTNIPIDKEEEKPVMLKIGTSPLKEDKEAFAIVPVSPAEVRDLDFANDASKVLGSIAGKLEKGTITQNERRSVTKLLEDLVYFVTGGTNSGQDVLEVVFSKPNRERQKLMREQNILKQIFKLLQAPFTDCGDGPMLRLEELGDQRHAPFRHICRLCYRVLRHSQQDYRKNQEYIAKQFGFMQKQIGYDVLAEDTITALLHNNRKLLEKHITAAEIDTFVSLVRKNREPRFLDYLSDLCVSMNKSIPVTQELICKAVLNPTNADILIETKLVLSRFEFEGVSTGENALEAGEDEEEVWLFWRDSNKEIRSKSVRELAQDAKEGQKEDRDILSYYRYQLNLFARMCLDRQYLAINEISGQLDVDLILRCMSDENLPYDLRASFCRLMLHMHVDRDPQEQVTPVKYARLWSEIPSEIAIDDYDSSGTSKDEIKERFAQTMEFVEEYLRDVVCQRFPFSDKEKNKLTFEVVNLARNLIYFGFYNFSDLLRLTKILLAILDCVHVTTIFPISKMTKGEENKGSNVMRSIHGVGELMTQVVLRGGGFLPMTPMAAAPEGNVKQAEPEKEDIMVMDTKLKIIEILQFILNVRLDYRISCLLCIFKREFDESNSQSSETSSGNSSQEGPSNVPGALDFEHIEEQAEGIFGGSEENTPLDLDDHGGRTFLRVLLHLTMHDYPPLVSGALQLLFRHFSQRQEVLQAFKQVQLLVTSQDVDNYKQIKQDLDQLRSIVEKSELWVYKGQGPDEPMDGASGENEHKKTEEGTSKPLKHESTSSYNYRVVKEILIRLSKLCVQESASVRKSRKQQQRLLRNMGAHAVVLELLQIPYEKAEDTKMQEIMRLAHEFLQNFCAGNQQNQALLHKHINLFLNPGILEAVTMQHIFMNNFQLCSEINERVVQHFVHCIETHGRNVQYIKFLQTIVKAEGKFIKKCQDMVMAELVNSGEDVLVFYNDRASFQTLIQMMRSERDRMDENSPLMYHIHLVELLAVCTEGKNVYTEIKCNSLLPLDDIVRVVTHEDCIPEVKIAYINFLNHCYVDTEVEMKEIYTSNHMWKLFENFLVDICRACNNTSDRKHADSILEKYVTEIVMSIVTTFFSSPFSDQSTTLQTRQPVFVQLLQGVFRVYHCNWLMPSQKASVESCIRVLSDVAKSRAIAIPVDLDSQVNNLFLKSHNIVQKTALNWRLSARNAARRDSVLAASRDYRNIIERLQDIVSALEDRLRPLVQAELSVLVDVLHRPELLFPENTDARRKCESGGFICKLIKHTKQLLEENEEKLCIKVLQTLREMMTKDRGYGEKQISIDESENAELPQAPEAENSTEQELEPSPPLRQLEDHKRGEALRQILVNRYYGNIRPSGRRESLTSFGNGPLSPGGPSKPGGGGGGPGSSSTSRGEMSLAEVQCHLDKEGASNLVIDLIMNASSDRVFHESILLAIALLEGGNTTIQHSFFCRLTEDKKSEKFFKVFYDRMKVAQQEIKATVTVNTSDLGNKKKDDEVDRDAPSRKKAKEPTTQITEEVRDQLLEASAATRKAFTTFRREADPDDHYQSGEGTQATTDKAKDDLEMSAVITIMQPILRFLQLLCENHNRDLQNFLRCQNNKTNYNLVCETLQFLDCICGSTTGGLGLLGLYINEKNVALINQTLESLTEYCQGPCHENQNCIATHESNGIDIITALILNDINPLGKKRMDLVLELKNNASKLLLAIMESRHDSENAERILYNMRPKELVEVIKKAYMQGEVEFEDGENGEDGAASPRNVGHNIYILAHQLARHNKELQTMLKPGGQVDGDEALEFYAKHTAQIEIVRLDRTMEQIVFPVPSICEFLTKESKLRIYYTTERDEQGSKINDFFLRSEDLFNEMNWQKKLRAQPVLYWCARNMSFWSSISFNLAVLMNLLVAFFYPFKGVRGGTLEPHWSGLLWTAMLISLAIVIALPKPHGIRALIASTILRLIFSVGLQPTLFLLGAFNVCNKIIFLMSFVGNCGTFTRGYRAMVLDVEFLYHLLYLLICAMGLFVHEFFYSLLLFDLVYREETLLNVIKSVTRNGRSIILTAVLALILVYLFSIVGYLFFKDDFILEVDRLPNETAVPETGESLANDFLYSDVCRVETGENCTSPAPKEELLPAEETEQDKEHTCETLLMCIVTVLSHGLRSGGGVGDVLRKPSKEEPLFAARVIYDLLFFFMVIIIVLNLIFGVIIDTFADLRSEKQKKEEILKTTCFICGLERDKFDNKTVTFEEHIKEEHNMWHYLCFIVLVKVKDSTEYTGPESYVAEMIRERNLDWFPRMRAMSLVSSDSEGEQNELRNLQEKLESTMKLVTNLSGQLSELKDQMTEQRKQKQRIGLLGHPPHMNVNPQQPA

Biological target: 3xFLAG-Bcl-2 (UniProt P10415)
Experiment: co-IP; anti-FLAG antibody on protein G magnetic particles; lysates of hippocampi of 5xFAD mice 30 days after AAV injection; lysis buffer 25 mM Tris, 150 mM NaCl, 10 mM EDTA, 1 % NP40, pH 7.6; 16 h at +4 °C; immunoblot for IP3R1, RyR2 and Bcl-2; control IgG

## inositol-1,4,5-trisphosphate type 1 receptor (from UniProt P11881 1-2749)
  binding: binds
